# Laboratory results as given in patent US11713341B1, “Antimicrobial NCR13 variant peptides” (Vestaron Corporation, priority 2022, dated 2023).
# Tested on: Botrytis cinerea
# Assay: Antimicrobial bioassay (Botrytis cinerea): growth inhibition by OD600
# Assay type: cell-based
# Conditions: COG = Cost of goods, yield improvement times the activity improvement, relative to NCR13a
# Experimental: The antimicrobial effect of the NCR13 variant peptides (NVPs) of the present disclosure were evaluated against the fungal species, Botrytis cinerea. […] The growth of Botrytis cinerea was then assessed via OD600 nm after incubation with a given NVP at room temperature after 96 hours. The IC50 of each peptide analyzed is shown in ppm.
# The antimicrobial effect of the NCR13 variant peptides (NVPs) of the present disclosure were evaluated against the fungal species, Botrytis cinerea. […] The growth of Botrytis cinerea was then assessed via OD600 nm after incubation with a given NVP at room temperature after 96 hours.
# The NVPs assessed were as follows: NVPM3 (+L) (SEQ ID NO: 5); NVPM5 (+M) (SEQ ID NO: 7); NVPM6 (+F) (SEQ ID NO: 8); NVPM7 (+W) (SEQ ID NO: 9); NVPM9 (+S) (SEQ ID NO: 11); NVPM11 (+Y) (SEQ ID NO: 13); NVPM14 (+D) (SEQ ID NO: 16); and NVPM15 (+E) (SEQ ID NO: 17).
# NVPs having an amino acid sequence of SEQ ID NOs: 5, 7, 8, 9, 11, 13, 16, and 17 were generated as described above in Example 1. The peptide, NCR13a, having an amino acid sequence of: […] (SEQ ID NO: 2) was selected as a comparator peptide, with which the antifungal activity of the foregoing NVPs was compared.
# The fungal species was Botrytis cinerea was cultured in potato dextrose agar plates. Fungal spores were collected from the agar plates and suspended into de-ionized water, followed by enumeration in a Petroff-Hausser counting chamber (VWR).
# The 96-well plates were incubated at room temperature for 96 hours without shaking. The OD600 of the culture plate was determined using SpectraMax plate reader. Relative OD600 was determined by normalizing cell growth to control wells containing neither NVPs nor NCR13a. The OD600 was used to determine IC50.
structure (smiles),measurement,value
CC[C@H](C)[C@H](NC(=O)[C@H](CS)NC(=O)[C@H](CCCCN)NC(=O)[C@@H]1CCCN1C(=O)[C@@H](NC(=O)[C@H](CCCCN)NC(=O)[C@@H]1CCCN1C(=O)[C@H](CCCCN)NC(=O)[C@H](CCCNC(=N)N)NC(=O)[C@H](CS)NC(=O)[C@H](C)NC(=O)[C@H](Cc1ccccc1)NC(=O)[C@H](CCCCN)NC(=O)[C@H](CCCCN)NC(=O)[C@H](CS)NC(=O)[C@H](CC(=O)O)NC(=O)[C@H](CCCCN)NC(=O)[C@H](CC(=O)O)NC(=O)[C@H](CO)NC(=O)[C@H](CCC(N)=O)NC(=O)[C@H](CS)NC(=O)[C@@H]1CCCN1C(=O)[C@H](CCCCN)NC(=O)[C@@H](NC(=O)[C@@H](N)CC(=O)O)[C@@H](C)O)C(C)C)C(=O)N[C@@H](CC(N)=O)C(=O)NCC(=O)N[C@@H](Cc1ccccc1)C(=O)N[C@@H](CS)C(=O)N[C@@H](CCCCN)C(=O)N[C@@H](CS)C(=O)N[C@H](C(=O)N[C@@H](CCCNC(=N)N)C(=O)O)C(C)C [NVPM14] (H-DTKPCQSDKDCKKFACRKPKVPKCINGFCKCVR-OH; N-terminus and C-terminus assumed),COG Improvement,2.57
CC[C@H](C)[C@H](NC(=O)[C@H](CS)NC(=O)[C@H](CCCCN)NC(=O)[C@@H]1CCCN1C(=O)[C@@H](NC(=O)[C@H](CCCCN)NC(=O)[C@@H]1CCCN1C(=O)[C@H](CCCCN)NC(=O)[C@H](CCCNC(=N)N)NC(=O)[C@H](CS)NC(=O)[C@H](C)NC(=O)[C@H](Cc1ccccc1)NC(=O)[C@H](CCCCN)NC(=O)[C@H](CCCCN)NC(=O)[C@H](CS)NC(=O)[C@H](CC(=O)O)NC(=O)[C@H](CCCCN)NC(=O)[C@H](CC(=O)O)NC(=O)[C@H](CO)NC(=O)[C@H](CCC(N)=O)NC(=O)[C@H](CS)NC(=O)[C@@H]1CCCN1C(=O)[C@H](CCCCN)NC(=O)[C@@H](NC(=O)[C@@H](N)CCC(=O)O)[C@@H](C)O)C(C)C)C(=O)N[C@@H](CC(N)=O)C(=O)NCC(=O)N[C@@H](Cc1ccccc1)C(=O)N[C@@H](CS)C(=O)N[C@@H](CCCCN)C(=O)N[C@@H](CS)C(=O)N[C@H](C(=O)N[C@@H](CCCNC(=N)N)C(=O)O)C(C)C [NVPM15] (H-ETKPCQSDKDCKKFACRKPKVPKCINGFCKCVR-OH; N-terminus and C-terminus assumed),COG Improvement,2.11

# Where a SMILES comes first, the peptide text is derived from it.
